Tested on: acetic acid-induced writhing
Assay: Acetic acid-induced writhing test
Type: in vivo
Settings: 3 mg/kg, s.c.; mice

With `CN1CC[C@]23c4c5ccc(O)c4O[C@H]2[C@@H](O)C=C[C@H]3[C@H]1C5` [morphine] as the compound, how does the “inhibition of the writhing assay response” value read?
The value was “full inhibition”.
